Source: the supplement of paper PMC10849652
The other results are listed elsewhere or left out.

Protein sequences, listed by entry. Tags and fused reporters are not part of them. Lines headed by an entry give the natural chain unless they say otherwise; changes in a name come on top.
UniProt O43167: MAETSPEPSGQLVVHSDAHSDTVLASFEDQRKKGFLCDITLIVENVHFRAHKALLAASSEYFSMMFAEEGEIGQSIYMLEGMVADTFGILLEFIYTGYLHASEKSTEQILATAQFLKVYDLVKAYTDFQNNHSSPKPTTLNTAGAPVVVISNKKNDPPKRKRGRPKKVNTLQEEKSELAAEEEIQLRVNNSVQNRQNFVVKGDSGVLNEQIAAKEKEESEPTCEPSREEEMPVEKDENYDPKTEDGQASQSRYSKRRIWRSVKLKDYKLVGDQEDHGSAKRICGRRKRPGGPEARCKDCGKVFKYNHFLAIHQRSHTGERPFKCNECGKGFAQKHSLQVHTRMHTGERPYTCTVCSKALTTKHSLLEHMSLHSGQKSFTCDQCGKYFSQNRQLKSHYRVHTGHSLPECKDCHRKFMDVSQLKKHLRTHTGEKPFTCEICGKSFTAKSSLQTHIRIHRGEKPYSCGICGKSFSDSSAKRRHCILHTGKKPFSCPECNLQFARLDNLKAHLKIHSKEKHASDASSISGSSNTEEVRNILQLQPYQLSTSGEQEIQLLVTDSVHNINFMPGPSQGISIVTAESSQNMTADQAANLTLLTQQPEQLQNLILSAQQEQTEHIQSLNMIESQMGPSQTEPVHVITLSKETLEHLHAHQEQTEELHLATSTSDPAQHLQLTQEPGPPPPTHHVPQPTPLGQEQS
UniProt O75152: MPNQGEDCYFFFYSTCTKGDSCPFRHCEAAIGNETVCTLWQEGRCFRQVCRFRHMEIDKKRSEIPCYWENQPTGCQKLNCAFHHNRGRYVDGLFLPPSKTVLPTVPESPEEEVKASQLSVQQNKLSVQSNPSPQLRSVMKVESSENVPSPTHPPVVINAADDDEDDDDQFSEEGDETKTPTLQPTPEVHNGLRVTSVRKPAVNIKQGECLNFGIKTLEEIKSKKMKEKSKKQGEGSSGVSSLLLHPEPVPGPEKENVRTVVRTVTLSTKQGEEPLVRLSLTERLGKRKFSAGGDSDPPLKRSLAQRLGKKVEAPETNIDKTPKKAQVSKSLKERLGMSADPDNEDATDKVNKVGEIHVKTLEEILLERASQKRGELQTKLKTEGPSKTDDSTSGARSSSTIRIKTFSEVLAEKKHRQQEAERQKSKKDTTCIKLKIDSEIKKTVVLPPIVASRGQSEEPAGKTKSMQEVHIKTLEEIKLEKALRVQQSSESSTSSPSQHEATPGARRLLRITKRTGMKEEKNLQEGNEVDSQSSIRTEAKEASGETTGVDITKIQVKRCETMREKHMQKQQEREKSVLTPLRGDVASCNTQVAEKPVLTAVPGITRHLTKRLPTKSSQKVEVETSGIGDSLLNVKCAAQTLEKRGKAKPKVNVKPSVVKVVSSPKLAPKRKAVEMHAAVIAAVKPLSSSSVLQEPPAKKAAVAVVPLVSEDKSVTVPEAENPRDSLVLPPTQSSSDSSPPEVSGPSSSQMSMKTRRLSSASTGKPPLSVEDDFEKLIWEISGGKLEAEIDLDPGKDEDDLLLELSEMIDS
UniProt Q8WU90: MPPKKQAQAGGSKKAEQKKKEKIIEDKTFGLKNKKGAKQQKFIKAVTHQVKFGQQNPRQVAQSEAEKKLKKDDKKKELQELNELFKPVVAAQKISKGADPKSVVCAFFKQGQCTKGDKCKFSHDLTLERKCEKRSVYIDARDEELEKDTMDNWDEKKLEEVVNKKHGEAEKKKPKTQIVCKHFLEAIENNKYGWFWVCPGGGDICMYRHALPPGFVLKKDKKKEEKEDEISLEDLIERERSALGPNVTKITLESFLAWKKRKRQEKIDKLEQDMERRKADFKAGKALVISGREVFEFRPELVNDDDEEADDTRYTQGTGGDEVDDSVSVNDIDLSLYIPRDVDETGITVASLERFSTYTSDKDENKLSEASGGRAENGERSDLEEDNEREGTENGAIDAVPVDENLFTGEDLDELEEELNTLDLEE
UniProt P31946: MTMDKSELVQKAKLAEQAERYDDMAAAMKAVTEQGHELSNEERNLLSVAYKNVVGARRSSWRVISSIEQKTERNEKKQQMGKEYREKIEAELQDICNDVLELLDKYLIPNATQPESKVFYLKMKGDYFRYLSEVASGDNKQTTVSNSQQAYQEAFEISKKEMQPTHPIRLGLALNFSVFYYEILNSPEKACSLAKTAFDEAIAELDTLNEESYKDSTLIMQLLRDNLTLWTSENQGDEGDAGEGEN
UniProt Q9NQH7: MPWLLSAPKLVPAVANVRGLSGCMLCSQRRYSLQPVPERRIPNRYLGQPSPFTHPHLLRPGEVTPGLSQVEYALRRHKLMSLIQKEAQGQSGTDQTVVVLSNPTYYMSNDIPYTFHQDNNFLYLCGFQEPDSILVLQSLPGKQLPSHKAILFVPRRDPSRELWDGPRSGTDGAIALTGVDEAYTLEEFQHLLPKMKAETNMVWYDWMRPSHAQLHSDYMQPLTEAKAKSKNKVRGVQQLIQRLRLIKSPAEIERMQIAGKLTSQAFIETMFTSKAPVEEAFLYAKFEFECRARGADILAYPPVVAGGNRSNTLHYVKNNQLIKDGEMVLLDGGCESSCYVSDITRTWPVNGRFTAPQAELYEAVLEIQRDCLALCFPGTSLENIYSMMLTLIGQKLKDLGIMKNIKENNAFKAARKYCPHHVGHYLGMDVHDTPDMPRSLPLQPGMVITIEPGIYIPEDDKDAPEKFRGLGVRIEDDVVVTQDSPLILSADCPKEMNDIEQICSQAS
UniProt Q5W0Z9: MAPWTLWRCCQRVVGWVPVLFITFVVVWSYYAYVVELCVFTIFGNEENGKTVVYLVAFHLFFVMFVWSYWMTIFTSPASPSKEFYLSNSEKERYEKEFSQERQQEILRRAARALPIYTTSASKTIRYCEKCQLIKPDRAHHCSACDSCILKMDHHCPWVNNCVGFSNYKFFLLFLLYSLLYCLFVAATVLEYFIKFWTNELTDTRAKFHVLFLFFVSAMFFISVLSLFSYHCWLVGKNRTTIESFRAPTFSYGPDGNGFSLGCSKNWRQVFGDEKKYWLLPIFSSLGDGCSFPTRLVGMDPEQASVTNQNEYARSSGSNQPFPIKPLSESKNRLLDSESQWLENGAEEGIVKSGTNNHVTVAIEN
UniProt Q9NP64: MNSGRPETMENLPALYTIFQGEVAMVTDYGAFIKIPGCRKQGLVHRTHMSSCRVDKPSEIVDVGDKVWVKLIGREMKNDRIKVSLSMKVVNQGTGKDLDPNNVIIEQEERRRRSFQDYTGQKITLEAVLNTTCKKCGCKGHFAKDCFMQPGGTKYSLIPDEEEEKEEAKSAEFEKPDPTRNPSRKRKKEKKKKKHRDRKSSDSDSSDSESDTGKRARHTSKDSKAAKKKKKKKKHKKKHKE
UniProt Q9BQ24: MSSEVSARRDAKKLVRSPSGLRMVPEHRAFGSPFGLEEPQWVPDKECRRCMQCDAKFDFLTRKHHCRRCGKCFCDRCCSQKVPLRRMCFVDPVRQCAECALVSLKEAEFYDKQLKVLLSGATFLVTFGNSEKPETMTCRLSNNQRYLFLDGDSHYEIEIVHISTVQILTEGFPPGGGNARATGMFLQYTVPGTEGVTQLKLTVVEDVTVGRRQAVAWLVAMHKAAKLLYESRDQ
UniProt Q96DA0: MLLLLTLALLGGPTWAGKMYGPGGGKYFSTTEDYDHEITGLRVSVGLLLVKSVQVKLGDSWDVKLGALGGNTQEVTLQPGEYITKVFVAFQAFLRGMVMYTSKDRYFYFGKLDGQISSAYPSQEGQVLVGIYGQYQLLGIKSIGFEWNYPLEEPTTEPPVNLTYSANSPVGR
UniProt Q5T4F4: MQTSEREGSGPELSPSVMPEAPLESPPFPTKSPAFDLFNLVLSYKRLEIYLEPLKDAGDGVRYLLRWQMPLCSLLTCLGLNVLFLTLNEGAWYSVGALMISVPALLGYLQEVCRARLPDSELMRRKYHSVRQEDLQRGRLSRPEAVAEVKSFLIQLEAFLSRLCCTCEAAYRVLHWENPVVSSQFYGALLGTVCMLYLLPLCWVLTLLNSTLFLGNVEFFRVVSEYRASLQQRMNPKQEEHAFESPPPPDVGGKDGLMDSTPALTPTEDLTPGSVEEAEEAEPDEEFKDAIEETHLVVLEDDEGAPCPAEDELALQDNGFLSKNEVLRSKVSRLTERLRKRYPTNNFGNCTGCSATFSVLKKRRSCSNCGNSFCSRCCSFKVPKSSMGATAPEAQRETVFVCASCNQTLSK
UniProt P37275: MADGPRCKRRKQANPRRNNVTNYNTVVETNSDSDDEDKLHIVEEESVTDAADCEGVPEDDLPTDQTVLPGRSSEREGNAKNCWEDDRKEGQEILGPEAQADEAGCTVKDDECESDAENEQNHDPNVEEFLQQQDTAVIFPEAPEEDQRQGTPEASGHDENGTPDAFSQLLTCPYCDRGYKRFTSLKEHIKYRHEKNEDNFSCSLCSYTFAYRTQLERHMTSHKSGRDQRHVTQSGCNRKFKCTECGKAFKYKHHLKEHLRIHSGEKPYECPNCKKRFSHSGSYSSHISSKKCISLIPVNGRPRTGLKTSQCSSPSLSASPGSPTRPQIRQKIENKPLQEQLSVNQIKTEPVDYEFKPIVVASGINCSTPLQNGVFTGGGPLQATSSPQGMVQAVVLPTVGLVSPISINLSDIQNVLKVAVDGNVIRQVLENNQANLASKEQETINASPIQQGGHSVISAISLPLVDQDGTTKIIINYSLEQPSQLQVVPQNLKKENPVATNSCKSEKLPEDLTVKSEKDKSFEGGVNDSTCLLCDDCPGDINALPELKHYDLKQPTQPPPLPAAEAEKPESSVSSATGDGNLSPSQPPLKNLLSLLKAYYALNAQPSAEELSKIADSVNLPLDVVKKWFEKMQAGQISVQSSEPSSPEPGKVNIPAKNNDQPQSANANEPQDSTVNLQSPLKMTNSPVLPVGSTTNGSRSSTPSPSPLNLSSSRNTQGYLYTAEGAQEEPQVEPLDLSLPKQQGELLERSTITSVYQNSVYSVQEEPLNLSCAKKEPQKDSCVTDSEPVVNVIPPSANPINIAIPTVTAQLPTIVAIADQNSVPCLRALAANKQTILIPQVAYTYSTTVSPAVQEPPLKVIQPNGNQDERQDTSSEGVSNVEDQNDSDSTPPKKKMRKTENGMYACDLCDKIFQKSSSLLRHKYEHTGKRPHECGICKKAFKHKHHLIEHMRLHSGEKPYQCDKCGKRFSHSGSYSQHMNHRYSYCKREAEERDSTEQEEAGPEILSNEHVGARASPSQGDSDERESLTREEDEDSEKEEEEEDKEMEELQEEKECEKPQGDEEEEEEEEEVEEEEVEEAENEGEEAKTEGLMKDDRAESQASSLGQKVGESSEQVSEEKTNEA
UniProt Q9Y2K1: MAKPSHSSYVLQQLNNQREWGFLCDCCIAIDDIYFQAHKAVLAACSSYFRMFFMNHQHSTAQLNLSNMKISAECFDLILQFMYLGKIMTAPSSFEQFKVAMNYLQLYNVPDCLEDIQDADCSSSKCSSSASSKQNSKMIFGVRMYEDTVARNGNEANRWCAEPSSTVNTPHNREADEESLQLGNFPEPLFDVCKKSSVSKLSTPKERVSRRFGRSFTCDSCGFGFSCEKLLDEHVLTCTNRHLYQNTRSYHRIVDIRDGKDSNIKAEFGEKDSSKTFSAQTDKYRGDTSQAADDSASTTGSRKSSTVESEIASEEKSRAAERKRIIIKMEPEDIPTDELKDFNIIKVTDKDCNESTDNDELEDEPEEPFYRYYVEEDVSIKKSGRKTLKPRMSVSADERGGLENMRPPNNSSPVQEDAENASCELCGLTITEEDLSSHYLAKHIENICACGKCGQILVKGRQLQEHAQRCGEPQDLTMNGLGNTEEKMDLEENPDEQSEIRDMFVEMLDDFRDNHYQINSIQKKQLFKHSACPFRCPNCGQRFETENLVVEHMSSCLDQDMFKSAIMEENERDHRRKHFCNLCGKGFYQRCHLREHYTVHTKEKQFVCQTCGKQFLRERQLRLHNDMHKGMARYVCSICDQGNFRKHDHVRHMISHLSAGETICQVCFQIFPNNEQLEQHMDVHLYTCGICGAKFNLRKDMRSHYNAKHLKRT
UniProt Q9NTW7: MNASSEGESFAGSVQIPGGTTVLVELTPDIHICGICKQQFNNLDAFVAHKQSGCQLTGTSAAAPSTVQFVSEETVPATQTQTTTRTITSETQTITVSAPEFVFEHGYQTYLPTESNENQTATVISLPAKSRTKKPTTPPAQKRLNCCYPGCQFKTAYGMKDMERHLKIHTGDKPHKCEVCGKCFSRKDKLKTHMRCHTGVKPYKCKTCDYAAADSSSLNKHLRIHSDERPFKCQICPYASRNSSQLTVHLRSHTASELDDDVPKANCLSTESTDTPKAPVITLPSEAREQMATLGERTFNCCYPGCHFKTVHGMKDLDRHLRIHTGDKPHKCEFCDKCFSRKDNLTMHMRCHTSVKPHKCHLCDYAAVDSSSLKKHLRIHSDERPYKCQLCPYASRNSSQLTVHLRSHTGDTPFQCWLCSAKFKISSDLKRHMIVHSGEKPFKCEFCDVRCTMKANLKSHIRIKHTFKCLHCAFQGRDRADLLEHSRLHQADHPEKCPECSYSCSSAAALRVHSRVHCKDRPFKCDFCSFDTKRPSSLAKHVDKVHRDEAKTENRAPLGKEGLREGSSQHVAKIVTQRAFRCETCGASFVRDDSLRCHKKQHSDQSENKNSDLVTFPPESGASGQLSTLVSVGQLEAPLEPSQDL

Assays:
Experiment in all cases: log2 fold change, soluble protein after heating vs DMSO (PISA); higher = thermal stabilisation; K562 lysate, 10 uM; active = over 0.2 and 3.5 SD of the protein, either way, in both replicates (recomputed)
ibrutinib = compound: C=CC(=O)N1CCC[C@@H](n2nc(-c3ccc(Oc4ccccc4)cc3)c3c(N)ncnc32)C1 [ibrutinib]
How it was run: (§1)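 Soluble protein was defined as the supernatant remaining after 21,000xg for 90 min, following pooling of heated aliquots and adjustment to 0.5% NP-40 at 4°C. Before that, crude K562 extract at 1 mg/mL protein in PBS pH 7.4 with 1 mM MgCl2 was treated with 10 μM compound for 30 min and heated for 3 min across 48°C-58°C. Quantification used TMTpro 16plex LC-MS/MS with channel sums equalised, and values are log-two fold changes in thermal stability relative to solvent controls from duplicates.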

[1] = compound: CC(=O)c1cnc2ccc(-c3cc(Cl)c(O)c(Cl)c3)nc2c1N[C@H]1CC[C@H](CN(C)C)CC1
How it was run: as §1

ralimetinib = compound: CC(C)(C)Cn1c(N)nc2ccc(-c3[nH]c(C(C)(C)C)nc3-c3ccc(F)cc3)nc21 [ralimetinib]
How it was run: as §1

[2] = compound: CC(C)(O)CC(=O)NCCn1ccc2ncnc(Nc3ccc(Oc4cccc(C(F)(F)F)c4)c(Cl)c3)c21
How it was run: as §1

[3] = compound: CC(C)C1=C2N=C(C=C(N2N=C1)NCC3=CC=CC=C3)NCCCCCCN
How it was run: as §1

[4] = compound: CC1=C(C(CC(=O)N1)C2=CC=C(C=C2)C(F)(F)F)C(=O)NC3=C(C=C4C(=C3)C=NN4)F
How it was run: as §1

[5] = compound: CC1=C(C2=C(C=C1)C(=O)C3=CC=CC=C3N2CCCN)C
How it was run: as §1

[6] = compound: CC1=C(C=C(C=C1)NC(=O)C2=CC(=CC=C2)C(C)(C)C#N)NC3=CC4=C(C=C3)N=CN(C4=O)C
How it was run: as §1

[7] = compound: CC1=C(C=C(C=C1)NC(=O)C2=CC(=CC=C2)N(C)C)NC(=O)C3=CC=C(C=C3)O
How it was run: as §1

[8] = compound: CC1=CC=C(C=C1)SC2=C3C=C(SC3=CN=C2)C(=O)N
How it was run: as §1

Measured: log2 fold change

ZFYVE1 (UniProt Q9HBF4)
inactive: ibrutinib 0.095 | [1] 0.04 | ralimetinib 0.049 | [2] -0.031 | [3] -0.019 | [4] 0.14 | [5] -0.039 | [6] 0.286 | [7] -0.053 | [8] -0.017

ZBTB24 (UniProt O43167)
inactive: ibrutinib -0.02 | [1] 0.044 | ralimetinib -0.093 | [2] -0.151 | [3] -0.102 | [4] 0.078 | [5] -0.113 | [6] 0.005 | [7] 0.095 | [8] 0.089

ZC3H11A (UniProt O75152)
inactive: ibrutinib 0.025 | [1] -0.1 | ralimetinib 0.019 | [2] -0.034 | [3] 0.025 | [4] 0.084 | [5] -0.016 | [6] 0.041 | [7] 0.041 | [8] -0.096

ZC3H15 (UniProt Q8WU90)
inactive: ibrutinib -0.006 | [1] 0.004 | ralimetinib 0.015 | [2] -0.021 | [3] 0.017 | [4] -0.01 | [5] -0.003 | [6] 0.043 | [7] 0 | [8] -0.019

ZFR (UniProt Q96KR1)
inactive: ibrutinib 0.038 | [1] -0.035 | ralimetinib 0.008 | [2] -0.002 | [3] 0.014 | [4] 0.014 | [5] -0.039 | [6] -0.04 | [7] 0.013 | [8] -0.004

Three records drawn at random from those above, as already listed:
ZFYVE1 (UniProt Q9HBF4)
inactive: ibrutinib 0.095 | [1] 0.04 | ralimetinib 0.049 | [2] -0.031 | [3] -0.019 | [4] 0.14 | [5] -0.039 | [6] 0.286 | [7] -0.053 | [8] -0.017

ZFR (UniProt Q96KR1)
inactive: ibrutinib 0.038 | [1] -0.035 | ralimetinib 0.008 | [2] -0.002 | [3] 0.014 | [4] 0.014 | [5] -0.039 | [6] -0.04 | [7] 0.013 | [8] -0.004

ZC3H15 (UniProt Q8WU90)
inactive: ibrutinib -0.006 | [1] 0.004 | ralimetinib 0.015 | [2] -0.021 | [3] 0.017 | [4] -0.01 | [5] -0.003 | [6] 0.043 | [7] 0 | [8] -0.019

Following part:

YWHAZ (UniProt P63104)
inactive: ibrutinib 0.002 | [1] -0.013 | ralimetinib -0.024 | [2] 0.031 | [3] -0.014 | [4] -0.023 | [5] 0.03 | [6] 0.042 | [7] -0.022 | [8] -0.025

YWHAB (UniProt P31946)
inactive: ibrutinib 0.022 | [1] 0.011 | ralimetinib 0.007 | [2] 0.039 | [3] 0.015 | [4] -0.023 | [5] 0.002 | [6] -0.038 | [7] 0.029 | [8] 0.01

ZFYVE19 (UniProt Q96K21)
inactive: ibrutinib -0.051 | [1] -0.031 | ralimetinib -0.004 | [2] 0.009 | [3] -0.015 | [4] -0.028 | [5] -0.067 | [6] -0.037 | [7] -0.013 | [8] -0.042

ZADH2 (UniProt Q8N4Q0)
inactive: ibrutinib 0.05 | [1] -0.002 | ralimetinib 0.014 | [2] -0.027 | [3] -0.046 | [4] -0.013 | [5] -0.088 | [6] -0.054 | [7] -0.01 | [8] -0.125

XRN2 (UniProt Q9H0D6)
inactive: ibrutinib 0.041 | [1] -0.016 | ralimetinib 0.012 | [2] 0.006 | [3] -0.014 | [4] -0.018 | [5] -0.031 | [6] -0.011 | [7] 0.018 | [8] 0.008

ZBTB8OS (UniProt Q8IWT0)
inactive: ibrutinib 0.049 | [1] 0.035 | ralimetinib 0.024 | [2] -0.057 | [3] -0.017 | [4] -0.026 | [5] 0.035 | [6] 0.01 | [7] -0.019 | [8] 0.028

YWHAZ (UniProt E7EX29)
inactive: ibrutinib 0.028 | [1] -0.014 | [8] -0.109

ZCCHC9 (UniProt Q8N567)
inactive: ibrutinib -0.013 | [1] -0.021 | ralimetinib -0.034 | [2] -0.042 | [3] 0.044 | [5] -0.069 | [6] 0.036 | [7] -0.168 | [8] -0.026

XPNPEP3 (UniProt Q9NQH7)
inactive: ibrutinib 0.025 | [1] 0.019 | ralimetinib 0 | [2] -0.014 | [3] 0.007 | [4] 0.039 | [5] 0 | [6] 0.04 | [7] -0.013 | [8] 0.014

ZDHHC20 (UniProt Q5W0Z9)
inactive: ibrutinib -0.033 | [1] -0.021 | [5] 0.009 | [6] 0.083 | [8] 0.05

YWHAZ (UniProt E7ESK7)
inactive: ibrutinib 0.116 | [1] -0.003 | [3] 0.161 | [5] -0.121 | [6] 0.039 | [8] -0.056

ZCCHC17 (UniProt Q9NP64)
inactive: ibrutinib 0.017 | [1] -0.021 | ralimetinib 0.013 | [2] -0.039 | [3] 0.025 | [4] 0.023 | [5] 0.015 | [6] 0.052 | [7] -0.038 | [8] -0.034

ZBTB7A (UniProt O95365)
inactive: ibrutinib -0.03 | [1] -0.012 | ralimetinib -0.024 | [2] -0.013 | [3] -0.078 | [5] -0.16 | [6] 0.093 | [7] 0.024 | [8] 0.067

ZFAND2B (UniProt Q8WV99)
inactive: ibrutinib 0.014 | [1] 0.054 | ralimetinib 0.073 | [2] -0.056 | [3] -0.094 | [4] -0.066 | [5] -0.033 | [6] 0.131 | [7] -0.129 | [8] -0.043

YBX3 (UniProt P16989)
inactive: ibrutinib -0.044 | [1] -0.005 | ralimetinib -0.001 | [2] -0.035 | [3] 0.005 | [4] -0.004 | [5] -0.046 | [6] 0.024 | [7] 0.007 | [8] -0.021

ZFYVE21 isoform 2 (UniProt Q9BQ24)
inactive: ibrutinib -0.069 | [1] -0.273 | ralimetinib 0.123 | [2] 0.109 | [4] -0.039 | [5] -0.043 | [6] 0.012 | [7] -0.092 | [8] -0.109

YIPF1 (UniProt Q9Y548)
inactive: ibrutinib 0.05 | [1] 0.011 | [4] -0.06 | [5] -0.064 | [6] 0.071 | [8] 0.006

YBX3 isoform 2 (UniProt P16989)
inactive: ibrutinib -0.14 | [1] 0.008 | ralimetinib 0.026 | [2] -0.05 | [3] -0.005 | [4] 0.051 | [5] -0.046 | [6] 0.024 | [7] 0.06 | [8] -0.003

ZG16B (UniProt Q96DA0)
inactive: ibrutinib -0.259 | [1] 0.476 | ralimetinib -0.384 | [2] 0.605 | [3] 0.126 | [4] 2.23 | [6] 0.118 | [7] -0.071 | [8] -0.217

YTHDC1 (UniProt Q96MU7)
inactive: ibrutinib -0.019 | [1] 0.068 | [4] 0.2 | [5] 0.164 | [6] 0.107 | [8] -0.028

ZC3H12C isoform 2 (UniProt Q9C0D7)
inactive: ibrutinib 0.047 | [1] 0.189 | ralimetinib -0.022 | [2] 0.007 | [3] 0.004 | [5] 0.124 | [6] -0.011 | [7] -0.073 | [8] -0.021

ZFYVE26 (UniProt Q68DK2)
inactive: ibrutinib -0.148 | [1] -0.258 | ralimetinib -0.092 | [2] -0.02 | [3] 0.074 | [4] -0.038 | [6] 0.034 | [7] -0.146 | [8] 0.206

ZBTB17 isoform 2 (UniProt Q13105)
inactive: ibrutinib 0.025 | [1] 0.011 | [3] -0.015 | [5] -0.063 | [6] 0.099 | [8] -0.021

ZFYVE27 isoform 2 (UniProt Q5T4F4)
inactive: ibrutinib 0.098 | [1] -0.012 | ralimetinib -0.034 | [2] -0.047 | [3] 0 | [5] 0.016 | [6] -0.056 | [7] 0.038 | [8] 0.008

ZCCHC8 (UniProt Q6NZY4)
inactive: ibrutinib 0.013 | [1] 0.008 | ralimetinib -0.005 | [2] -0.027 | [3] -0.011 | [4] 0.023 | [5] -0.013 | [6] 0.011 | [7] 0.02 | [8] -0.007

ZEB1 isoform 2 (UniProt P37275)
inactive: ibrutinib -0.14 | [1] 0.005 | ralimetinib 0.116 | [2] -0.024 | [3] -0.052 | [5] -0.055 | [6] 0.034 | [7] -0.088 | [8] -0.019

ZBTB10 (UniProt Q96DT7)
inactive: ibrutinib 0.181 | [1] 0.002 | ralimetinib -0.01 | [2] -0.047 | [3] 0.027 | [5] -0.012 | [6] 0.009 | [7] -0.03 | [8] 0.011

ZBTB1 (UniProt Q9Y2K1)
inactive: ibrutinib -0.061 | [1] -0.137 | ralimetinib 0.032 | [2] -0.106 | [3] 0.182 | [7] 0.051 | [8] 0.102

ZFP64 isoform 5 (UniProt Q9NTW7)
inactive: ibrutinib 0.084 | [1] 0.017 | ralimetinib -0.033 | [2] -0.059 | [6] 0.028 | [7] 0.083 | [8] 0.145
